Among the data in PubChem BioAssay AID1487 (National Center for Advancing Translational Sciences (NCATS), 2009) are AC50 values, retold here.

What is called AC50 is the midpoint of the concentration-response curve, whichever way the signal moves.

Molecules are shown by their SMILES. Some of the results follow. Further columns of the screen follow, without active or inactive calls. Compounds called inactive in the main read-out are mostly missing here. Potencies come from curve fits of mixed quality, noted in brackets.

This assay is described as follows: qHTS Assay for Modulators of Lamin A Splicing. The note with it: HeLa LMNA splicing GFP/RFP minigene ratio, 48 h. The procedure, abridged: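 Read-out is the ratio of GFP to DsRed2 object intensity, acquired by 488 nm laser-scanning cytometry on HeLa lamin A-EGFP minigene reporter cells. Compound incubation 48 hrs at 37 °C in Opti-MEM with 2% FBS; DMSO 0.5% final.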
For orientation: Quantitative high-throughput screening tests each substance at several concentrations.

Setting [1] is: measured here: GFP splicing reporter channel.
Setting [2] is: measured here: RFP viability control channel.

Turning to `COc1ccc2occ(NC(C)=O)c2c1`, the half-maximal activity concentration (AC50) by setting is: under setting [1], 14.1 µM [rising, single point]; under setting [2], 20 µM [rising, single point].

As to `COc1ccc(Nc2nc(Cl)nc(NCc3ccco3)n2)c(OC)c1`, the AC50 is 0.398 µM [rising, single point] under setting [1] and 15.8 µM [rising, partial curve] under setting [2].

`S=C(NC1CCCCC1)N(CCc1nc2ccccc2[nH]1)C1CCCC1`: the AC50 under setting [1] was 12.6 µM [rising, single point] and the half-maximal activity concentration (AC50) under setting [2] was 20 µM [rising, single point].

With `Cc1cccc(C(=O)NCCc2sc(-c3ccccc3)nc2C)c1`, the AC50 under setting [2] is 1.41 µM [falling, partial curve].

For `CCOC(=O)c1sc2ccccc2c1S(=O)(=O)Nc1cccc(C(F)(F)F)c1`, the concentration at half-maximal activity (AC50) under setting [2] is 12.6 µM [rising, single point].

Turning to `O=C(Nc1c(-c2ccccc2)nc2ccc(Cl)cn12)c1cccs1`, the AC50 under setting [2] was 11.2 µM [rising, partial curve].

With `C(=Nc1ccc(Nc2ccccc2)cc1)c1ccc2ccccc2c1`, under setting [2], the AC50 was 15.8 µM [rising, partial curve].

With `Cc1ccsc1C(=O)OCC(=O)Nc1ccc(Cl)cc1C(F)(F)F`, under setting [2], the AC50 is 22.4 µM [rising, single point].

Turning to `Cc1c(Cl)cccc1NC(CC(=O)c1ccccc1)C(=O)O` (stereo unspecified), the AC50 under setting [2] was 20 µM [rising, single point].

Turning to `Cc1sc2ncnc(N3CCC(C(=O)Oc4cccc(Cl)c4Cl)CC3)c2c1C`, the concentration at half-maximal activity (AC50) under setting [1] is 5.01 µM [falling, full curve, poor fit].

On to `COc1ccc(CNC(=O)C(C#N)c2nc3ccccc3nc2N2CCCC2)cc1` (stereo unspecified), for which, under setting [1], the concentration at half-maximal activity (AC50) is 31.6 µM [falling, single point].

Consider `COc1cccc2c1C(=O)c1c(O)c3c(c(O)c1C2=O)C[C@@](O)(C(=O)CO)C[C@@H]3OC1CC(N)C(O)C(C)O1` (stereo partly specified), for which the AC50 under setting [1] is 10 µM [falling, partial curve].

Consider `COc1ccccc1OCC(=O)Nc1cccc(-c2nnc(-c3ccco3)o2)c1`, for which the concentration at half-maximal activity (AC50) under setting [1] is 39.8 µM [falling, partial curve, poor fit].

For `O=C(NCC(c1cccnc1)N1CCN(Cc2ccccc2)CC1)C(=O)Nc1cccc(F)c1` (stereo unspecified), the AC50 is, setting by setting: under setting [1], 1.26 µM [falling, full curve, poor fit]; under setting [2], 1.41 µM [falling, full curve, poor fit].

Regarding `Cc1ccc(Cn2c(=O)n(CC3CCC(C(=O)N4CCOCC4)CC3)c(=O)c3sccc32)cc1` (stereo unspecified), under setting [2], the AC50 was 0.00891 µM [falling, full curve, poor fit].

Consider `COC(=O)C(Cc1ccccc1)N1CCS(=O)(=O)CC1` (stereo unspecified), for which the concentration at half-maximal activity (AC50) under setting [1] was 1 µM [falling, full curve, poor fit].

As for `O=C(CSc1nnc(NC2CCCCC2)s1)Nc1ccc2c(c1)C(=O)c1ccccc1C2=O`, the AC50 reads like this: under setting [1], 3.16 µM [falling, partial curve, poor fit]; under setting [2], 0.00282 µM [falling, full curve, poor fit].

For the compound `O=C(OCC1OC(n2cnc3c(N(C(=O)c4ccccc4)C(=O)c4ccccc4)ncnc32)C(O)C1F)c1ccccc1` (stereo unspecified), the AC50 is, setting by setting: under setting [1], 35.5 µM [falling, single point]; under setting [2], 35.5 µM [falling, single point].

On to `COC(=O)[C@@H]1CC[C@H](C)[C@@H](c2ccc(C)cc2)N1C(=O)c1ccc(/C=N/OC[C@@H](O)COCc2ccco2)cc1`, for which, under setting [2], the concentration at half-maximal activity (AC50) was 15.8 µM [rising, single point].

For `COc1cccc(OCCN2CCN(c3ncnc4c3cnn4-c3ccccc3)CC2)c1`, the AC50 under setting [1] is 12.6 µM [rising, partial curve] and the AC50 under setting [2] was 12.6 µM [rising, partial curve].

In the case of `CCc1cccc(NC(=O)CN2CCCN(Cc3cccc(C)c3)S2(=O)=O)c1`, the AC50 under setting [1] was 35.5 µM [falling, single point] and the AC50 under setting [2] is 35.5 µM [falling, single point].

Turning to `CC1=C(C(=O)OCc2ccccc2)C(/C=C/c2ccccc2)N2C(=O)CCSC2=N1` (stereo unspecified), the AC50 was 11.2 µM [rising, partial curve] under setting [1] and 17.8 µM [rising, single point] under setting [2].

As to `COc1cc(OC)c2c(C)cc(=O)oc2c1`, the half-maximal activity concentration (AC50) under setting [2] was 35.5 µM [rising, single point].

Regarding `COc1ccc2nc(N3CCN(C(=O)C4CC4)CC3)sc2c1`, the AC50 is, setting by setting: under setting [1], 1.58 µM [rising, full curve]; under setting [2], 0.794 µM [rising, partial curve, poor fit].

Take `CC(/C=C/c1ccccc1)=N\NC(=O)CNC(=O)c1ccccc1Cl`: the AC50 under setting [1] was 12.6 µM [rising, single point].

`Cc1cc(C(=O)CN2C(=O)C(=O)N(C3CCCC3)C2=O)c(C)n1-c1ccc(F)cc1`: the AC50 is, setting by setting: under setting [1], 3.55 µM [falling, partial curve]; under setting [2], 5.01 µM [falling, partial curve].

`CCN1CCN(C(=O)c2ccc(-c3nc4ccccc4s3)s2)CC1`: the AC50 under setting [2] is 0.562 µM [falling, full curve, poor fit].

With `COC(=O)c1ccc(Cn2cnc3c(cnn3-c3ccc(F)cc3)c2=O)o1`, the AC50 under setting [1] is 14.1 µM [rising, single point] and the half-maximal activity concentration (AC50) under setting [2] is 17.8 µM [rising, single point].

Turning to `COc1ccc(CCN(Cc2cccs2)S(=O)(=O)c2ccc(-n3cnnn3)cc2)cc1OC`, under setting [2], the AC50 is 35.5 µM [rising, single point].

For the compound `Cc1noc(C)c1Cc1c(Cl)cccc1Cl`, under setting [2], the AC50 was 0.794 µM [falling, full curve, poor fit].

Consider `CN(C)c1nc(OCCNC(=O)COc2ccc(Cl)cc2Cl)nc(N(C)C)n1`, for which the concentration at half-maximal activity (AC50) under setting [2] was 15.8 µM [rising, single point].

For the compound `CCN(CC)S(=O)(=O)c1ccc(C)c(N=C=S)c1`, the AC50 under setting [1] is 6.31 µM [rising, partial curve, poor fit] and the AC50 under setting [2] is 2.82 µM [rising, full curve, poor fit].

Take `Cc1ccc(CCNc2ncnc3onc(C)c23)cc1`: the half-maximal activity concentration (AC50) under setting [2] is 22.4 µM [rising, single point].

Regarding `CN(C)c1ccc(/C=C2/NC(=O)NC2=O)cc1`, the concentration at half-maximal activity (AC50) by setting is: under setting [1], 6.31 µM [falling, full curve, poor fit]; under setting [2], 5.62 µM [falling, full curve].

Consider `CSc1cccc(Nc2cc(C(=O)NCCCN(Cc3ccccc3)C(C)C)c3ccccc3n2)c1`, for which the concentration at half-maximal activity (AC50) by setting is: under setting [1], 12.6 µM [falling, partial curve]; under setting [2], 12.6 µM [falling, partial curve].

As for `COc1ccc(-c2n[nH]c(=S)n2/N=C/C=C\c2ccccc2OC)cc1`, the AC50 under setting [2] was 5.01 µM [rising, single point].

As for `CN(C)c1ccc(-c2nccc(NCc3cccs3)n2)cc1`, the AC50 is, setting by setting: under setting [1], 5.01 µM [falling, partial curve]; under setting [2], 15.8 µM [falling, partial curve].

Regarding `O=S(=O)(Nc1ccc(Cc2ccncc2)cc1)c1ccc(Cl)s1`, the AC50 runs as follows: under setting [1], 8.91 µM [rising, partial curve, poor fit]; under setting [2], 12.6 µM [rising, partial curve].

`COc1cccc(Cn2c(=O)c(-c3ccc(Cl)cc3)nc3cncnc32)c1`: the AC50 runs as follows: under setting [1], 3.16 µM [falling, full curve]; under setting [2], 3.55 µM [falling, full curve].

In the case of `CCc1c(C)nc2ccc(Br)cc2c1SCCC#N`, the concentration at half-maximal activity (AC50) under setting [2] is 25.1 µM [rising, single point].

With `Nc1sccc1C(=O)c1ccccc1`, the concentration at half-maximal activity (AC50) under setting [2] is 15.8 µM [rising, partial curve].

Consider `COc1ccc(NC(=O)c2ccccc2NS(=O)(=O)c2ccc(C)cc2)c([N+](=O)[O-])c1`, for which the half-maximal activity concentration (AC50) under setting [2] was 31.6 µM [rising, single point].

As to `CC(Oc1ccc(Cl)cc1)C(=O)Nc1nccs1` (stereo unspecified), the concentration at half-maximal activity (AC50) under setting [2] is 12.6 µM [rising, single point].

Consider `CC(=O)Oc1cc2oc(=O)c3c(c2cc1Cl)CCC3`, for which the AC50 is, setting by setting: under setting [1], 17.8 µM [rising, single point]; under setting [2], 22.4 µM [rising, single point].

Take `COc1ccc(-c2nnc3ccc(SCC(=O)Nc4cc(C)on4)nn23)cc1`: the half-maximal activity concentration (AC50) under setting [1] is 0.0708 µM [rising, full curve, poor fit].

On to `CC(=O)NC1=C(N(C)C2CCS(=O)(=O)C2)C(=O)c2ccccc2C1=O` (stereo unspecified), for which the AC50 under setting [2] was 31.6 µM [rising, single point].

For `O=C(/C=C\c1ccc2c(c1)OCO2)NC1(C(=O)Nc2ccc3c(c2)OCCO3)CCCCC1`, the AC50 under setting [1] was 0.0316 µM [rising, full curve, poor fit].

As for `COc1ccc(C(=O)C[n+]2ccc3c(c2)nnn3-c2ccccc2)cc1`, the concentration at half-maximal activity (AC50) reads like this: under setting [1], 35.5 µM [falling, single point]; under setting [2], 35.5 µM [falling, single point].

Consider `COc1cc(NC(=O)c2cccnc2Sc2ccc(Cl)cc2)cc(OC)c1OC`, for which, under setting [2], the concentration at half-maximal activity (AC50) was 12.6 µM [rising, partial curve].

Turning to `O=c1c2ccccc2nc(SCc2nc3ccccc3s2)n1CCCO`, the AC50 is 12.6 µM [rising, partial curve, poor fit] under setting [1] and 12.6 µM [rising, partial curve, poor fit] under setting [2].

Consider `Cc1ccc(S(=O)(=O)/C(=C/Cl)NC(=O)c2ccccc2)cc1`, for which the AC50 runs as follows: under setting [1], 35.5 µM [falling, single point]; under setting [2], 31.6 µM [falling, single point].

With `Cc1ccc(C2CC(=O)C(C=NCCN3CCN(C(=S)Nc4ccccc4)CC3)=C(O)C2)cc1` (stereo unspecified), the AC50 under setting [2] was 0.158 µM [rising, full curve, poor fit].

Turning to `COC(=O)C1=C(C)NC(=O)/C1=C\c1ccco1`, the concentration at half-maximal activity (AC50) under setting [2] is 2.51 µM [falling, full curve, poor fit].

Take `CC(C)CSC1=NSC2=NC(=O)/C(=C\c3cccs3)C(=N)N12`: the AC50 under setting [1] was 2.51 µM [rising, single point].
